Measurements reported in PubChem BioAssay AID1224828 (NIAID, 2016)
Here is a random part of about 17,000 deposited reagents. Of all reagents, 762 (4.5%) are marked active. 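Active calls include both raised and lowered p65 entry, mostly lowered; wells with fewer than 50 cells lack a z-score.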 Raw values vary from plate to plate and are shown uncorrected. A number with no mark means an inactive call.

- Purpose: 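Knock-downs that increase or decrease LPS-induced p65 nuclear translocation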 (primary screen)
- Cell system: mouse RAW264.7 G9 macrophage reporter cells (GFP-p65, Tnf promoter-mCherry)
- Reagent: siRNA pool against mouse genes, 100 nM
- Duration: 2 days siRNA transfection, then 40 min LPS before fixation
- Conditions: LPS (Salmonella minnesota R595) at 10 ng/ml
- Measurement: 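Microscopy ratio of nuclear to perinuclear-ring GFP-p65 signal, scaled to the plate median; gene score is the average of two replicate robust z-scores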
- Reading the numbers: p65 translocation robust z-score: higher = more nuclear NF-kappaB p65 after LPS than the plate median; nuclear/cytoplasmic p65 ratio: higher = more nuclear NF-kappaB p65
- Rule for the call: 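Called active when z exceeds 3.3 or falls under -1.56 (median of Tlr4 controls), giving activity score of at least 50; no calls for control wells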
- Calls: active = hit (p65 shift raised or lowered); inactive = no clear change

target gene	PubChem SID	p65 translocation robust z-score	nuclear/cytoplasmic p65 ratio, rep 1	nuclear/cytoplasmic p65 ratio, rep 2	low cell count flag
AY036118	SID315477246	-0.12	1.45	1.63	enough cells to score
Zdhhc19	SID315479809	-0.46	1.42	1.2	enough cells to score
Rtkn	SID315469061	-0.51	1.3	1.2	enough cells to score
Plpp5	SID315474374	-0.44	1.48	1.61	enough cells to score
Mageb18	SID315477941	1.13	1.63	2.17	enough cells to score
Mmadhc	SID315476789		1.27	1.14	fewer than 50 cells per well; well left out of scoring
Gpd1	SID315466867	0.27	1.41	1.47	enough cells to score
Dync2li1	SID315477818		1.23	1.27	fewer than 50 cells per well; well left out of scoring
Or2h2c	SID315480130	2.02	1.81	1.39	enough cells to score
Gtf2f2	SID315473608	0.04	1.42	1.39	enough cells to score
Reg3g	SID315468938	1.39	1.47	1.37	enough cells to score
Ptger1	SID315468772	-1.32	1.33	1.38	enough cells to score
Colgalt2	SID315480834	0.15	1.58	1.75	enough cells to score
A130023I24Rik	SID315481342	0.16	1.19	1.55	enough cells to score
Xbp1	SID315470055	0.6	1.64	1.55	enough cells to score
Cyp11a1	SID315466212	1.09	1.68	1.47	enough cells to score

Next part; the last 2 above are carried over.
target gene	PubChem SID	p65 translocation robust z-score	nuclear/cytoplasmic p65 ratio, rep 1	nuclear/cytoplasmic p65 ratio, rep 2	low cell count flag
Xbp1	SID315470055	0.6	1.64	1.55	enough cells to score
Cyp11a1	SID315466212	1.09	1.68	1.47	enough cells to score
Opalin	SID315478468		1.33	1.16	fewer than 50 cells per well; well left out of scoring
Myo6	SID315468078	0.47	1.48	1.42	enough cells to score
Slc67a2	SID315477704		1.07	1.26	fewer than 50 cells per well; well left out of scoring
Or52n2c	SID315480664	-1.4	1.29	1.11	enough cells to score
Epn2	SID315466537	-0.69	1.45	1.41	enough cells to score
Wscd2	SID315481419		1.45	1.54	fewer than 50 cells per well; well left out of scoring
Napb	SID315468100	-0.25	1.42	1.31	enough cells to score
Cma2	SID315466006	0.41	1.79	1.71	enough cells to score
Tsn	SID315469850	0.62	1.37	1.3	enough cells to score
Deptor	SID315476115	-0.07	1.51	1.58	enough cells to score
Apex2	SID315475488	1.6	1.73	1.84	enough cells to score
Or6c69	SID315480320		1.38	1.18	fewer than 50 cells per well; well left out of scoring
Terf2ip	SID315471761	-0.25	1.46	1.51	enough cells to score
Tgs1	SID315477076	0.34	1.29	1.39	enough cells to score
Jarid2	SID315467549		1.22	1.16	fewer than 50 cells per well; well left out of scoring
Foxs1	SID315466711	-0.37	1.39	1.32	enough cells to score
Etos1	SID315477027		1.34	1.43	fewer than 50 cells per well; well left out of scoring
Psors1c2	SID315471778	-1.76 (active)	1.06	1.1	enough cells to score
Synrg	SID315478066	1.22	1.84	1.77	enough cells to score
Psapl1	SID315475418	0.08	1.37	1.32	enough cells to score
Liat1	SID315481753	-0.33	1.62	1.53	enough cells to score
Or9s23	SID315480645	-1.35	1.39	1.26	enough cells to score
Tbl1xr1	SID315475772		1.24	1.25	fewer than 50 cells per well; well left out of scoring
Kera	SID315467606	0	1.47	1.38	enough cells to score
